From patent US11140318B2, “Laser endoscope device” (Mie University, priority 2016, dated 2021)

Assay: Solubility of curcumin in solvents replacing water (optimized solving method)
Type: physicochemical
Protocol: First of all, even when a cell group can be stained, staining unevenness occurs, and it is therefore difficult to acquire an image of a uniformly stained living body. […] Curcumin, in particular, is solved by about 5% in a 100% glycerol liquid or a 50%-glycerol and 50%-ethanol mixture liquid. Therefore, the 5%-curcumin solution is diluted and used in the living body staining. Specifically, the 5% solution was stored as a stock liquid, and the stock liquid was diluted with a physiological saline solution by a factor ranging from 10 to 1000, and the resultant liquid was used to stain a living body. The optimized solving method allowed a high-definition cell image shown below to be obtained.

- amount solved (solubility) (in a 50%-glycerol and 50%-ethanol mixture liquid): about 5%
- amount solved (solubility) (in a 100% glycerol liquid): about 5%
SMILES: COc1cc(/C=C/C(=O)CC(=O)/C=C/c2ccc(O)c(OC)c2)ccc1O [curcumin dye, curcumin]
